US7015251B1 (priority 1999, dated 2006)
Some of these results come from one statement about several compounds together.

System: Jurkat cells
Assay: Jurkat TUNEL assay for apoptosis
Type: cell-based, human
Conditions: 0.6 ng/ml of paclitaxel alone, 24 hours
Protocol: Terminal deoxynucleotide transferase (TdT) mediated deoxyuridine triphosphate (dUTP) nick-end labeling (TUNEL) assay. […] At 24 and 48 hours, DNA strand breaks were labeled with TUNEL assay (In Situ Cell Death Detection Kit, Fluorescein; Boehringer Mannheim, Indianapolis, Ind.), and cellular apoptosis was measured by flow cytometry.

CC(=O)O[C@H]1C(=O)[C@@]2(C)[C@H]([C@H](OC(=O)c3ccccc3)[C@]3(O)C[C@H](OC(=O)[C@H](O)[C@@H](NC(=O)c4ccccc4)c4ccccc4)C(C)=C1C3(C)C)[C@]1(OC(C)=O)CO[C@@H]1C[C@@H]2O [Paclitaxel]
apoptosis (TUNEL): ≤ 3%
